PubChem BioAssay AID1259308, NCATS – 2017
Purpose: 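Genes whose loss raises luciferase production in HEK293 cells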 (primary screen). Cell system: human HEK293 embryonic kidney cells stably expressing firefly luciferase (HEK-CMV-Luc2-Hygro). Reagent: single siRNA against human genes, 0.8 pmol siRNA per well. Timing: 72 h. Detection: 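Luciferase light (ONE-Glo) measured on one replicate plate set and viability (CellTiter-Glo) on the other, scaled to a negative control siRNA, with robust z-scores and luciferase per cell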. Direction: total luciferase, z-score and total luciferase, % of control: higher = more reporter protein produced; luciferase per cell, z-score: higher = more reporter output per viable cell; viable cells, % of control: higher = more viable cells. Call rule: 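An siRNA counts as active if its total luciferase robust z-score exceeds 3; genes with two or more such siRNAs out of three were retested with fresh siRNAs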. Calls: active = raised luciferase; inactive = no rise.
Shown is one part, drawn at random, of about 59,000 deposited reagents. Of all reagents, about 1,510 (2.6%) are marked active. 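Calls use total luciferase alone and ignore viability, so some active siRNAs may act by altering cell number.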 Reagents against one gene are numbered here.

target | siRNA no. | total luciferase, z-score | total luciferase, % of control | luciferase per cell, z-score | viable cells, % of control | Outcome
SYPL2 | 1 | 0.936 | 100 | 0.951 | 87.4 | inactive
SYPL2 | 2 | -0.0632 | 80.6 | 0.0655 | 88.6 | inactive
SYPL2 | 3 | 0.874 | 99.3 | -0.0957 | 114 | inactive
ATP5ME | 1 | 0.872 | 99.2 | 0.932 | 86.8 | inactive
ATP5ME | 2 | -0.312 | 75.7 | 0.511 | 73.9 | inactive
ATP5ME | 3 | 0.203 | 85.9 | 0.613 | 81.7 | inactive
TTC4 | 1 | 2.22 | 126 | 2.14 | 80.2 | inactive
TTC4 | 2 | 0.474 | 91.3 | 0.346 | 93.2 | inactive
TTC4 | 3 | 0.807 | 97.9 | 1.18 | 80.3 | inactive
HMMR | 1 | -0.45 | 72.9 | -0.856 | 102 | inactive
HMMR | 2 | -0.476 | 72.4 | -0.833 | 101 | inactive
HMMR | 3 | -0.418 | 73.6 | -0.814 | 102 | inactive
ARHGAP21 | 1 | -0.0152 | 81.6 | -0.68 | 109 | inactive
ARHGAP21 | 2 | -0.0774 | 80.3 | -0.466 | 102 | inactive
ARHGAP21 | 3 | 1.4 | 110 | 1.95 | 73.3 | inactive
RIMS2 | 1 | -0.466 | 72.6 | -0.888 | 103 | inactive
RIMS2 | 2 | 1.71 | 116 | 1.12 | 96.4 | inactive
RIMS2 | 3 | 0.228 | 86.4 | -0.0392 | 97.6 | inactive
C7orf33 | 1 | 1.11 | 104 | 0.619 | 98.6 | inactive
C7orf33 | 2 | 0.84 | 98.6 | 0.924 | 86.4 | inactive
C7orf33 | 3 | 0.505 | 91.9 | -0.17 | 107 | inactive
KPNB1 | 1 | 2.34 | 128 | 2.85 | 67.7 | inactive
KPNB1 | 2 | 1.21 | 106 | 2.1 | 68.2 | inactive
KPNB1 | 3 | 2.54 | 132 | 2.37 | 79.2 | inactive

Sorted by “total luciferase, z-score” (lowest first): 2 of the entries above.
target | siRNA no. | total luciferase, z-score | total luciferase, % of control | luciferase per cell, z-score | viable cells, % of control | Outcome
KPNB1 | 2 | 1.21 | 106 | 2.1 | 68.2 | inactive
KPNB1 | 1 | 2.34 | 128 | 2.85 | 67.7 | inactive
